Article PMC3605044
These are yes or no findings as the source states them, for the method shown.

What was measured:
Test in all cases: SEC; both purified
[1] = biological target: LdtMt2 AB module (residues 55-250) (M. tuberculosis H37Rv) (UniProt O53223)
[2] = biological target: LdtMt2 BC module (residues 149-408) (M. tuberculosis H37Rv) (UniProt O53223)
[3] = biological target: LdtMt2 complete extramembrane segment (residues 34-408) (M. tuberculosis H37Rv) (UniProt O53223)

## LdtMt2 AB module (residues 55-250) (from UniProt O53223 55-250) (domain or fragment)
[1]
  binding: no binding

## LdtMt2 BC module (residues 149-408) (from UniProt O53223 149-408) (domain or fragment)
[2]
  binding: no binding

## LdtMt2 complete extramembrane segment (residues 34-408) (from UniProt O53223 34-408) (domain or fragment)
[3]
  binding: no binding
